Laboratory results: PMC8161077
Results are given in words; binding and its absence hold for the method and conditions named. Binding calls can cover weak binding; strength is not graded here.

The chains behind the UniProt entries cited, without tags or fusion partners. Where a name states a change or a piece, a line headed by the entry shows the natural chain unless it says otherwise. Residues count along the entry.
UniProt P98164, residues 26-4655: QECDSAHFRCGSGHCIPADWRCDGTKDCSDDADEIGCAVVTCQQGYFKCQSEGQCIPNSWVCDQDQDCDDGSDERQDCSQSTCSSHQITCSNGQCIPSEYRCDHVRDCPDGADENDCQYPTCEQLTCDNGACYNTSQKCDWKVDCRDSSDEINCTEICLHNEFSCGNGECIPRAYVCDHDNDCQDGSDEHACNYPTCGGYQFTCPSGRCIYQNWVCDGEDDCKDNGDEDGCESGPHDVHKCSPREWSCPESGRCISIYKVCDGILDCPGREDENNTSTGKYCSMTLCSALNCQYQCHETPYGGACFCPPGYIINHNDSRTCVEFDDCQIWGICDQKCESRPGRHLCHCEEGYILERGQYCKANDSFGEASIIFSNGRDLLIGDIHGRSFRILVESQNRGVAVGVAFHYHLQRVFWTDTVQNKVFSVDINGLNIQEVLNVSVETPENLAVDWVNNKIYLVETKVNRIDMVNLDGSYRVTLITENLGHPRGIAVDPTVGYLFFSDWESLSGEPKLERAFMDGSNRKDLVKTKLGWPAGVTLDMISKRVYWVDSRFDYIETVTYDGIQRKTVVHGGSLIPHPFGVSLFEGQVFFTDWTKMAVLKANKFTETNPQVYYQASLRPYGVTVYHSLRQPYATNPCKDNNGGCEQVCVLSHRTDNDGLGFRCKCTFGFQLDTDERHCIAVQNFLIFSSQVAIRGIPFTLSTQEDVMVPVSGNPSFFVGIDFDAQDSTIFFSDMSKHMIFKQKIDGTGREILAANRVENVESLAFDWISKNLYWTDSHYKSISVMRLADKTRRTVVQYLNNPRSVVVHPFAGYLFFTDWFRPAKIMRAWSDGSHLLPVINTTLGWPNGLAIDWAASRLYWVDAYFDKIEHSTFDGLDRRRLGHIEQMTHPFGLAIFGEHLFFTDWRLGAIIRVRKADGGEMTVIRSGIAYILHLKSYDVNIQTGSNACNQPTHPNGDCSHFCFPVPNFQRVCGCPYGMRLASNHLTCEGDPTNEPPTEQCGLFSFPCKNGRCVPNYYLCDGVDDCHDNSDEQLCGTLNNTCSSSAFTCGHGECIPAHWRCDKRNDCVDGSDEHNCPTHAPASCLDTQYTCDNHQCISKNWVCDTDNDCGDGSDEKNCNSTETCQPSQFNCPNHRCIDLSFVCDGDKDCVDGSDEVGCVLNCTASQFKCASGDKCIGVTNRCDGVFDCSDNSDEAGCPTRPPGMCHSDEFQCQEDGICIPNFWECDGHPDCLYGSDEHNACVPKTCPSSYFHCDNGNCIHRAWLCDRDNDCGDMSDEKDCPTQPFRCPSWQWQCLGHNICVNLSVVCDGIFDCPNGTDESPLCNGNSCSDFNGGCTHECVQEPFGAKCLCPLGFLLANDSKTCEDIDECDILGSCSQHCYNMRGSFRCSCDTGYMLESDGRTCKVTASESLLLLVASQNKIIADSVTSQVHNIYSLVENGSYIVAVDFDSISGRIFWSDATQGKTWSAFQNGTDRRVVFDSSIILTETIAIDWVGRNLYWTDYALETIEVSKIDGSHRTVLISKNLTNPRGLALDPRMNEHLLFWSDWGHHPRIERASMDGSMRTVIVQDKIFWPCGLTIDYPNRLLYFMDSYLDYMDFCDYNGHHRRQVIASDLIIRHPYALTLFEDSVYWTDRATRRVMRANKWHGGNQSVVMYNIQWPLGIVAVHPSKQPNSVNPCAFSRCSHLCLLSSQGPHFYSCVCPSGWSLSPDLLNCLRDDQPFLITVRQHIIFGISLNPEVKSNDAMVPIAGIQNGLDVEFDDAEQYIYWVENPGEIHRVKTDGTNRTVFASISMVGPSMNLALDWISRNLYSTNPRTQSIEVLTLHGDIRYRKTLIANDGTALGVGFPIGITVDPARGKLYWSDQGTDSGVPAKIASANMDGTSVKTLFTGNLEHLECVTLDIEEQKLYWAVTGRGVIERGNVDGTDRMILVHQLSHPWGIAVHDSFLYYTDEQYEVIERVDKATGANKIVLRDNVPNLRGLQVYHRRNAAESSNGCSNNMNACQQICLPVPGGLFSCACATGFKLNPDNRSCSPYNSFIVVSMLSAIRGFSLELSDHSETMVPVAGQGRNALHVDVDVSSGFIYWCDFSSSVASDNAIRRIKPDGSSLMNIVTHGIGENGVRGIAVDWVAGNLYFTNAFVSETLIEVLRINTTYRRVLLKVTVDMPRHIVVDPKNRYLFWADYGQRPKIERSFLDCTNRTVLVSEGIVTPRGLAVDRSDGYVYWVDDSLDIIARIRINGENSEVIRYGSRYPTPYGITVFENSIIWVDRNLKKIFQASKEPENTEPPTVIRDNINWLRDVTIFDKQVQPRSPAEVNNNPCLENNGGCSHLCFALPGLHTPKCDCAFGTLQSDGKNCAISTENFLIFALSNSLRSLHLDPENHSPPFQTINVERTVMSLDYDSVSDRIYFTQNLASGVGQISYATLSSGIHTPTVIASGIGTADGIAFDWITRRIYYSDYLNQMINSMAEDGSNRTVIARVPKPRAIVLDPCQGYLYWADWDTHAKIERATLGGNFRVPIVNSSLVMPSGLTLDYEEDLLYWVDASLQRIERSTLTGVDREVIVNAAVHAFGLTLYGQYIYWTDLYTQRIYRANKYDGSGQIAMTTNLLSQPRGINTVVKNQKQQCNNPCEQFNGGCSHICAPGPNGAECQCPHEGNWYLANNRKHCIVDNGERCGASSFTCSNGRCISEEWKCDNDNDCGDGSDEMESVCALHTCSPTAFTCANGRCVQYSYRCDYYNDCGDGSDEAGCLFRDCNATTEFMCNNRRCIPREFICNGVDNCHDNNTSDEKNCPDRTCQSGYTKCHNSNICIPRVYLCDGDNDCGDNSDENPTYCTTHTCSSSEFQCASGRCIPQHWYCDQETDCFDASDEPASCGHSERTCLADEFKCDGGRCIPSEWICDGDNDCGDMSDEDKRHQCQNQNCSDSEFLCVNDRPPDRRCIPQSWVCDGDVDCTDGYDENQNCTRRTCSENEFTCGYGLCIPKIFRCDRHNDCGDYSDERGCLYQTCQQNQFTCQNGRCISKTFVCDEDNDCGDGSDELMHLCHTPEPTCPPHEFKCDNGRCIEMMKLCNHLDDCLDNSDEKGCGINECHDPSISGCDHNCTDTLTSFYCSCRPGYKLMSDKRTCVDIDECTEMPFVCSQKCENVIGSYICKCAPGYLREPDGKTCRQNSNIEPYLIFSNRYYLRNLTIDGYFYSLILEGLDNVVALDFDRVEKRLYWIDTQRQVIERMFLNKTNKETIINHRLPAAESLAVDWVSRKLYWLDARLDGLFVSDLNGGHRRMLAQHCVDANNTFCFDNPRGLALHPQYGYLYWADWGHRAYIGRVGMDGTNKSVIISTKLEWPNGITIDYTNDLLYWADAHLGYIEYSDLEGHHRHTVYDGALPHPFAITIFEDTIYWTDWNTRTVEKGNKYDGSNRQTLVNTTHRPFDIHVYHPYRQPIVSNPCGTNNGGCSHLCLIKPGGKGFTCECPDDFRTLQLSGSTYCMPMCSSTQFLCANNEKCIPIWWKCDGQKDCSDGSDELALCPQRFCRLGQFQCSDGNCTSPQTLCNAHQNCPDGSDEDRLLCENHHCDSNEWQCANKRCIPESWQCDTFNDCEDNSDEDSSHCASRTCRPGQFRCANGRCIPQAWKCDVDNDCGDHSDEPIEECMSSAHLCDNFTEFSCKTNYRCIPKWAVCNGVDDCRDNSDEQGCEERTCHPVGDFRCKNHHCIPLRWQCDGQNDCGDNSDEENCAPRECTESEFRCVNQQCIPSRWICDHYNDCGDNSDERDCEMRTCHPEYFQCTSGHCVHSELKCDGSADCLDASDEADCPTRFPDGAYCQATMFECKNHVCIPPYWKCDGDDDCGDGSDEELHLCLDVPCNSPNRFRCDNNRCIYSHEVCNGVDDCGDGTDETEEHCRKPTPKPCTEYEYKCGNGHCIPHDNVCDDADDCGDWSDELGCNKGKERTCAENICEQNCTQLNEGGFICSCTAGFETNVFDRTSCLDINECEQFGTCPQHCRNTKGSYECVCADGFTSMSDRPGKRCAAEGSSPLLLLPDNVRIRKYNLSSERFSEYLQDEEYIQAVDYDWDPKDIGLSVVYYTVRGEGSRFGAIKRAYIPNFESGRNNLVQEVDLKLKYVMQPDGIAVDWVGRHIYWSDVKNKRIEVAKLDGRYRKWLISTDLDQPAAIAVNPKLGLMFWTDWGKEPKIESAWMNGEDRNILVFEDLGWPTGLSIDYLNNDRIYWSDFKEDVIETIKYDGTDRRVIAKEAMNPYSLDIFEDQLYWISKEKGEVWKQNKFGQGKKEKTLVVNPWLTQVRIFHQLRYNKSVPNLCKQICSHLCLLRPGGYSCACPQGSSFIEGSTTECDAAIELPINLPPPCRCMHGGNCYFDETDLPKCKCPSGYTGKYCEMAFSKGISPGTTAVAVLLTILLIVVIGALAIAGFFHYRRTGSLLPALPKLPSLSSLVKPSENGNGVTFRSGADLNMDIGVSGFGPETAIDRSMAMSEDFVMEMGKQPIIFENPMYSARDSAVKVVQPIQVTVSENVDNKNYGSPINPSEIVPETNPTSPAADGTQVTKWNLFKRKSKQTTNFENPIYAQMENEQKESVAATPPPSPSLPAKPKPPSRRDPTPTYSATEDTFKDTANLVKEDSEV
UniProt P30533: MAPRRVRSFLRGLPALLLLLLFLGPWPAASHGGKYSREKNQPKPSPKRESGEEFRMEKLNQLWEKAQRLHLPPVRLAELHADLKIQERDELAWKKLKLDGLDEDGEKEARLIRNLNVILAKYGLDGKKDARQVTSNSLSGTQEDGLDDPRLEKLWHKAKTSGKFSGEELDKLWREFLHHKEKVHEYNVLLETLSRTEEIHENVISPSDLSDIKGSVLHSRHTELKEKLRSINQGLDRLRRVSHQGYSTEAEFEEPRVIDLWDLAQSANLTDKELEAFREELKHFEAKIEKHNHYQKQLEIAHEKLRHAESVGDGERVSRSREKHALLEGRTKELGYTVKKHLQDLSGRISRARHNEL

Biological target: megalin (human (endogenous in HK-2)) (UniProt P98164)
Assay: flow cytometry on cells; GST–RAP at 0.5–8 µg/mL (2-fold steps) incubated with HK-2 cells (wild type and OCRL KO) for 1 h on ice; detected with GST antibody conjugated with Alexa-fluor 488; no-ligand control subtracted; one site-specific binding model for Bmax and kd; only the binder purified

binding: binds
Substance: recombinant GST–RAP fusion protein (receptor-associated protein RAP) (from UniProt P30533) (ligand)
